Measured values taken from PMC7162800.
Results are given in words; binding and its absence hold for the method and conditions named. In cells and extracts the contact can be indirect. Some binding calls cover weakened binding; strength is not graded here.

Biological target: T1, RANK (RANKL receptor) (mouse (endogenous in OCPs from C57BL/6 bone marrow)) (UniProt O35305)
T1 sequence: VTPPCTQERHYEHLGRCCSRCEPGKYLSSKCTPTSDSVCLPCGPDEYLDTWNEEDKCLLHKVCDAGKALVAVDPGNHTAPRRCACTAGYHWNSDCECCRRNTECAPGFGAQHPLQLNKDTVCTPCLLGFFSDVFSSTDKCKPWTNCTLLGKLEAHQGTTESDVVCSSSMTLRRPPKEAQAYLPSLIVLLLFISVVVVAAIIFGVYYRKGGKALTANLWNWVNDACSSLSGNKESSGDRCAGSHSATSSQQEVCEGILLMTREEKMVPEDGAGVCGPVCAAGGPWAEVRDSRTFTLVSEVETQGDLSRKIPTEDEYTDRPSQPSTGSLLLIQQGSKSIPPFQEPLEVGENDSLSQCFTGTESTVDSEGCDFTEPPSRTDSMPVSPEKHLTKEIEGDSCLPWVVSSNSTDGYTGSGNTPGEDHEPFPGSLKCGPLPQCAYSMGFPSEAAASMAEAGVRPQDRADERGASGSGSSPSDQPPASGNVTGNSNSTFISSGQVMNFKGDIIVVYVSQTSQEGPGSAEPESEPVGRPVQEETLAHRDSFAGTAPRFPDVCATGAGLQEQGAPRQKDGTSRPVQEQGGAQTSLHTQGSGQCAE
Assay: co-IP; lysates of OCPs treated with or without RANKL for 2 h, with or without 17β-estradiol; IP with anti-RANK or anti-TRAF6 antibody, blot with anti-TRAF6 or anti-RANK antibody, respectively

binding: binds
B1: TRAF6 (protein, UniProt P70196 1-530)
chain: MSLLNCENSCGSSQSSSDCCAAMAASCSAAVKDDSVSGSASTGNLSSSFMEEIQGYDVEFDPPLESKYECPICLMALREAVQTPCGHRFCKACIIKSIRDAGHKCPVDNEILLENQLFPDNFAKREILSLTVKCPNKGCLQKMELRHLEDHQVHCEFALVNCPQCQRPFQKCQVNTHIIEDCPRRQVSCVNCAVSMAYEEKEIHDQSCPLANIICEYCGTILIREQMPNHYDLDCPTAPIPCTFSVFGCHEKMQRNHLARHLQENTQLHMRLLAQAVHNVNLALRPCDAASPSRGCRPEDPNYEETIKQLESRLVRQDHQIRELTAKMETQSMYVGELKRTIRTLEDKVAEMEAQQCNGIYIWKIGNFGMHLKSQEEERPVVIHSPGFYTGRPGYKLCMRLHLQLPTAQRCANYISLFVHTMQGEYDSHLPWPFQGTIRLTILDQSEALIRQNHEEVMDAKPELLAFQRPTIPRNPKGFGYVTFMHLEALRQGTFIKDDTLLVRCEVSTRFDMGGLRKEGFQPRSTDAGV
